Experimental data published in the M2OR odorant receptor database.
This is one part of the list. The calls were merged from several studies; some rest on single wells.

Chains of the proteins cited; added tags and fusions are not shown. A line that says so, or that is headed by a name, gives the form on record, which may keep a tag or linker.
O52I2, as listed by the source: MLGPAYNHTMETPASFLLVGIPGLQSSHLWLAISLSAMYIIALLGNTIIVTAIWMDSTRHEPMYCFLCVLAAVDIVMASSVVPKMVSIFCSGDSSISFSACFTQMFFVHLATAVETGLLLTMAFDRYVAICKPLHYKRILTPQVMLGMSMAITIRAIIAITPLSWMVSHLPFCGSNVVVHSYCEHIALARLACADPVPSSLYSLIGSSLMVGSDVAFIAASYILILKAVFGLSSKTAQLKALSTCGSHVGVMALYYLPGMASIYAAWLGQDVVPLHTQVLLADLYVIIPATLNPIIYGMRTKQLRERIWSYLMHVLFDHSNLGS

What was measured:
Conditions in all cases: stereoisomer not certain
O52I2 [1] = tested on: T1, O52I2
T1 sequence (whole entry): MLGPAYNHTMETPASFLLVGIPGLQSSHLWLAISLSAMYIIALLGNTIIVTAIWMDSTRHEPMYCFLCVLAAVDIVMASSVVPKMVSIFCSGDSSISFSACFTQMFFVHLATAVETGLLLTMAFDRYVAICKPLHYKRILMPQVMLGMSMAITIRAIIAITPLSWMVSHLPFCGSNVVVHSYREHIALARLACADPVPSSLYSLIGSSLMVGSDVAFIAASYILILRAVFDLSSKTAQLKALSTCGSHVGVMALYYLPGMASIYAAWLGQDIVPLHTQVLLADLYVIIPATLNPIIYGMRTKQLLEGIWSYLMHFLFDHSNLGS
Procedure, shortened: (§1)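 Each entry records the cell line, G-protein, co-transfected protein and tags used. Methods varied with the source, often transient luciferase assays in mammalian cell lines. A receptor–molecule pair is called responsive (active) if the original authors judged its signal statistically different from baseline and non-responsive (inactive) otherwise.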

O52J3 = tested on: T2, O52J3
T2 sequence (whole entry): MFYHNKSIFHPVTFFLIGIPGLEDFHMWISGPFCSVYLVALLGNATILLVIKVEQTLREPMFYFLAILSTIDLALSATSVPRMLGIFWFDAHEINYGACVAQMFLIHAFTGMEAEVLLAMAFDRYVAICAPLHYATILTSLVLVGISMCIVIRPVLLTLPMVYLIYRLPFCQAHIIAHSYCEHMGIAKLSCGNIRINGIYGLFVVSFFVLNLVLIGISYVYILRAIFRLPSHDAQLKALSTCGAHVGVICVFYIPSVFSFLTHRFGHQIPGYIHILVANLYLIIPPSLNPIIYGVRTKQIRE
Procedure, shortened: as §1

O52L1 = tested on: T3, O52L1
T3 sequence (whole entry): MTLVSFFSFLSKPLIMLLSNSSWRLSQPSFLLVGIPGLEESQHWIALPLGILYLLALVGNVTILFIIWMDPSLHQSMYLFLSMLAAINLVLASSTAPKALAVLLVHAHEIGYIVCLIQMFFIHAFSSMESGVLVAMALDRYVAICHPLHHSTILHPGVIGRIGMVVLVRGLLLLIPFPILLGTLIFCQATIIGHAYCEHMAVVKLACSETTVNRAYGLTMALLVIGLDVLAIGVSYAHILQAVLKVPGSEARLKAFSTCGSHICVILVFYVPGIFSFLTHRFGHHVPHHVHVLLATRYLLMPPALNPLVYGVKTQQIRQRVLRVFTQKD
Procedure, shortened: as §1

O52L2 = tested on: T4, O52L2
T4 sequence (whole entry): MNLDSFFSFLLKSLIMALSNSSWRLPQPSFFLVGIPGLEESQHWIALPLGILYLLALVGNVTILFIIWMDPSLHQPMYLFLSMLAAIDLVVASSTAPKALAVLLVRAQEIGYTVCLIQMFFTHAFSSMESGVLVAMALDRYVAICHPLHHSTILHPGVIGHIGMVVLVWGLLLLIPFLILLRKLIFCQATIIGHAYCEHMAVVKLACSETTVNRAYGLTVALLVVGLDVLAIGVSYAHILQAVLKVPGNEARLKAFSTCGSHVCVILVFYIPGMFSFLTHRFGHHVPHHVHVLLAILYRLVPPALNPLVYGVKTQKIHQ
Procedure, shortened: as §1

O52M1 = tested on: T5, O52M1
T5 sequence (whole entry): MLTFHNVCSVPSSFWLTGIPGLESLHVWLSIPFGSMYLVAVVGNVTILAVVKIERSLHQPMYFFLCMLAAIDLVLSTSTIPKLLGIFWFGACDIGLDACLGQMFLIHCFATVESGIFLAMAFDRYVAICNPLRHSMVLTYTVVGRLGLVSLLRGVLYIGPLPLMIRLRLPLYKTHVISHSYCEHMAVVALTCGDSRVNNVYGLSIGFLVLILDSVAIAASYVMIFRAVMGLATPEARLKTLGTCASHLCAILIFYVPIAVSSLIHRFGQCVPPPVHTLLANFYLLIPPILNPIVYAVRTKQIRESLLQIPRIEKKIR
Procedure, shortened: as §1

O52N1 = tested on: T6, O52N1
T6 sequence (whole entry): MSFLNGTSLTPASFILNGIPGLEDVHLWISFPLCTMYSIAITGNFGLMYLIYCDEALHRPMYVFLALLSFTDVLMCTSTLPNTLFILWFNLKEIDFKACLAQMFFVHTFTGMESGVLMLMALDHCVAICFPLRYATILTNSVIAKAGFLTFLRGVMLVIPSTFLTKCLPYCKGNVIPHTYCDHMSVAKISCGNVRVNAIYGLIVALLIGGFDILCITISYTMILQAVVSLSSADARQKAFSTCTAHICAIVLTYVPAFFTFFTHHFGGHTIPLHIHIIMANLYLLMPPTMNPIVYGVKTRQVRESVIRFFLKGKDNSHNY
Procedure, shortened: as §1

O52N2 = tested on: T7, O52N2
T7 sequence (whole entry): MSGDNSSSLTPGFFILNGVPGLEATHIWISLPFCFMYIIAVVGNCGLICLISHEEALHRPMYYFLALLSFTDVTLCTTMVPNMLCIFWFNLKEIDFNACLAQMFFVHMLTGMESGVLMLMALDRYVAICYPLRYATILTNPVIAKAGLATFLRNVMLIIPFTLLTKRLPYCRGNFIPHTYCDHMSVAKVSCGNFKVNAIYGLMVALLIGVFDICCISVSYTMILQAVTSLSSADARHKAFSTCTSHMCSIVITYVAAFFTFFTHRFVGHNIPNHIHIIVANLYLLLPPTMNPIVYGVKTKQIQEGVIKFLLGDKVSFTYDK
Procedure, shortened: as §1

O52N4 = tested on: T8, O52N4
T8 sequence (whole entry): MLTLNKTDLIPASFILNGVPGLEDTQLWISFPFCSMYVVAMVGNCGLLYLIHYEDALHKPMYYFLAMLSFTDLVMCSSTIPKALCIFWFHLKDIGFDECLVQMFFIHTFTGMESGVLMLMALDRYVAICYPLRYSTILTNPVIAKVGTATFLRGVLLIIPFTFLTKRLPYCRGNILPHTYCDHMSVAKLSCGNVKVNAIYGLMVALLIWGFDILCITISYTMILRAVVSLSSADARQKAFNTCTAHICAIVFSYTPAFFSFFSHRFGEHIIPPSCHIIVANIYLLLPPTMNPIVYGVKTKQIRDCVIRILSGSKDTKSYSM
Procedure, shortened: as §1

O52P1 = tested on: T9, O52P1
T9 sequence (whole entry): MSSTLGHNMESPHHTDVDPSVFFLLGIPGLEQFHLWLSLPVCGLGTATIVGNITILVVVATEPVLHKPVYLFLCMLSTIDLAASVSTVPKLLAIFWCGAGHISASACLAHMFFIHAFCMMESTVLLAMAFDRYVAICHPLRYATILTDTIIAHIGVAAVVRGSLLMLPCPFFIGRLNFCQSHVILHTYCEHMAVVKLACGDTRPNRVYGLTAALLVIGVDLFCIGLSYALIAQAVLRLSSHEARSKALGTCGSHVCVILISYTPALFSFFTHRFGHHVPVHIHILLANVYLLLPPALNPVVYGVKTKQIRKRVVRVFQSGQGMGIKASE
Procedure, shortened: as §1

O52I2 [2] = tested on: O52I2; remark: listed apart in the source
Procedure, shortened: as §1

Measured: odorant receptor agonist call

O=CCc1ccccc1
active: O52N2 | O52N4
not listed: O52I2 [2]
inactive: all other assays above

CC(=O)OC1CC2CCC1(C)C2(C)C (stereo not given)
not listed: O52I2 [2]
inactive: all other assays above

COc1cc(C=O)ccc1O
not listed: O52I2 [2]
inactive: all other assays above

CC1=CCC(C(C)(C)O)CC1 (stereo not given)
not listed: O52I2 [2]
inactive: all other assays above

C=CCSCC=C
not listed: O52I2 [2]
inactive: all other assays above

CC12C=CCC1C1CCC3=CC(=O)CCC3(C)C1CC2 (stereo not given)
active: O52N4
not listed: O52I2 [2]
inactive: all other assays above

O=C1CCCCCCCCCCCCCCO1
not listed: O52I2 [2]
inactive: all other assays above

CCCCCCCC=CC=O
active: O52N2
not listed: O52I2 [2]
inactive: all other assays above

CC1COCc2cc3c(cc21)C(C)(C)C(C)C3(C)C (stereo not given)
inactive: O52M1 | O52N1 | O52N4
not listed: O52I2 [2]
active: all other assays above

CC12CCC(CC1)C(C)(C)O2
not listed: O52I2 [2]
inactive: all other assays above

CC12C=CCC1C1CCC3CC(=O)CCC3(C)C1CC2 (stereo not given)
active: O52M1 | O52N1 | O52P1
not listed: O52I2 [2]
inactive: all other assays above

CC(C)(C)c1ccc(CCC=O)cc1
not listed: O52I2 [2]
inactive: all other assays above

CCCCCCOC(=O)CCC
not listed: O52I2 [2]
inactive: all other assays above

CCCC(=O)O
not listed: O52I2 [2]
inactive: all other assays above

COC(=O)c1ccccc1O
not listed: O52I2 [2]
inactive: all other assays above

C=CCc1ccc(OC(C)=O)c(OC)c1
active: O52N2
not listed: O52I2 [2]
inactive: all other assays above

O=C1CCCCCCCCCCCC(=O)OCCO1
active: O52N2
not listed: O52I2 [2]
inactive: all other assays above

CCCCCCCCCC=O
inactive: all assays above

C=CC(C)(O)CCC=C(C)C (stereo not given)
not listed: O52I2 [2]
inactive: all other assays above

CCCCCCCOC(C)=O
not listed: O52I2 [2]
inactive: all other assays above

CCCCCCCC=O
not listed: O52I2 [2]
inactive: all other assays above

CCCCCCCCOC(C)=O
not listed: O52I2 [2]
inactive: all other assays above

CC=Cc1ccc(O)c(OC)c1
active: O52I2 [1] | O52N2 | O52N4 | O52P1
not listed: O52I2 [2]
inactive: all other assays above

CC(=O)OC(C)(C)C1CC=C(C)CC1 (stereo not given)
not listed: O52I2 [2]
inactive: all other assays above

c1cnccn1
not listed: O52I2 [2]
inactive: all other assays above

CC(C)CC(=O)O
active: O52N4
not listed: O52I2 [2]
inactive: all other assays above

C=C(C)C1CCC2=CC(=O)CC(C)C2(C)C1 (stereo not given)
inactive: O52N2
active: O52N4

O=C1CCCCC1
inactive: O52I2 [1] | O52M1 | O52N1 | O52P1

c1ccc(Oc2ccccc2)cc1
not listed: O52I2 [2]
inactive: all other assays above

CC1CCC(C(C)C)C(O)C1 (stereo not given)
active: O52I2 [1]
not listed: O52I2 [2]
inactive: all other assays above

CCCCO
not listed: O52I2 [2]
inactive: all other assays above

CC(C)C=O
not listed: O52I2 [2]
inactive: all other assays above

CCC=CCCO
not listed: O52I2 [2]
inactive: all other assays above

CC(C)C(=O)O
not listed: O52I2 [2]
inactive: all other assays above

C=CCc1ccc(OC)c(OC)c1
active: O52N4
not listed: O52I2 [2]
inactive: all other assays above

COc1cc(C)ccc1O
active: O52N1
not listed: O52I2 [2]
inactive: all other assays above

CCCCCC(C)=O
inactive: O52I2 [1] | O52L2 | O52M1 | O52N1 | O52P1

CC(=O)C(C)=O
not listed: O52I2 [2]
inactive: all other assays above

CC12CCC(C1)C(C)(C)C2=O (stereo not given)
active: O52N4
not listed: O52I2 [2]
inactive: all other assays above

CCCCCOC(C)=O
inactive: O52I2 [1] | O52M1 | O52N1 | O52N2 | O52N4 | O52P1

CCCCCCCCCCC=O
not listed: O52I2 [2]
inactive: all other assays above

CCC1(O)C2(C)CCC(C2)C1(C)C (stereo not given)
not listed: O52I2 [2]
inactive: all other assays above

CC1=NC(C)SC1C (stereo not given)
active: O52L1
inactive: O52I2 [1] | O52M1 | O52N1 | O52P1

COC(=O)c1ccccc1
inactive: O52I2 [1] | O52M1 | O52N1 | O52P1

CCCCCC(=O)O
not listed: O52I2 [2]
inactive: all other assays above

CC(C)=CCCC(C)=CC=O
active: O52N4
not listed: O52I2 [2]
inactive: all other assays above

CC(=O)c1ccccc1
inactive: O52I2 [1] | O52M1 | O52N1 | O52P1

COc1ccccc1O
not listed: O52I2 [2]
inactive: all other assays above

CC(=O)OCC=C(C)CCC=C(C)C
active: O52N2
not listed: O52I2 [2]
inactive: all other assays above

CC(C)(O)CCCC1=CCC(C=O)CC1 (stereo not given)
inactive: O52N2 | O52N4

CC(C)CCC(=O)O
not listed: O52I2 [2]
inactive: all other assays above
